According to paper PMC12244390:
Results are given in words; binding and its absence hold for the method and conditions named. In cells and extracts the contact can be indirect. Some results given as binding are weak or reduced against the parent protein; the word gives no strength.

Protein sequences, listed by entry. Tags and fused reporters are not part of them.
UniProt P61224: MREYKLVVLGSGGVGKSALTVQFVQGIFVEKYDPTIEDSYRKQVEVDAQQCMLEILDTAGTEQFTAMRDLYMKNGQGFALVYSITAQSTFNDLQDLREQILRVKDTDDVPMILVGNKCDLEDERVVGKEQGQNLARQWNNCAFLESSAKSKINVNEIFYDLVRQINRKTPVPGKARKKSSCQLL
UniProt O60260: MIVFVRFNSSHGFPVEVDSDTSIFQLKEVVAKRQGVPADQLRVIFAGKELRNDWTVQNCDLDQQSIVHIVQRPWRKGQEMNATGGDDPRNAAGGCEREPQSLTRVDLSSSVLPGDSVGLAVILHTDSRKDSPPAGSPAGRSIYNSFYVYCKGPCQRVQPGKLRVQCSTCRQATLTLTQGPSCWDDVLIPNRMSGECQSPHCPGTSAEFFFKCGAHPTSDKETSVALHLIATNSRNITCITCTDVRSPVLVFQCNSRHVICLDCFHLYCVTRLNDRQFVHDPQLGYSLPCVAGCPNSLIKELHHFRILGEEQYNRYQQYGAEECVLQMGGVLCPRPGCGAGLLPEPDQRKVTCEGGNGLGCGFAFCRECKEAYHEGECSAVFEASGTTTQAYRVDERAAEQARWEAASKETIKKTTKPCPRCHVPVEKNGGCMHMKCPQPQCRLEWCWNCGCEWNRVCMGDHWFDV

Experiments:
HA-RAP1B [1] = molecular target: HA-RAP1B (UniProt P61224); assay: co-IP; 293 T cells co-transfected with HA-RAP1B, Flag-PARK2, and/or Myc-FN1; western blot of Flag, HA, Myc tagged proteins after immunoprecipitation
HA-RAP1B [2] = molecular target: HA-RAP1B (UniProt P61224); assay: co-IP; cells transfected with Flag-PARK2 and HA-RAP1B plasmids; IP with anti-HA antibody; immunoblot
[3] = molecular target: RAP1B (human (endogenous in LOVO)) (UniProt P61224); assay: co-IP; endogenous proteins in LOVO cell lysate (also LOVO-shNC/LOVO-shFN1#1/LOVO-shFN1#2 knock-down cells); IP with anti-RAP1B antibody, IgG as negative control, 4°C overnight, protein A agarose; western blot

With “Flag-PARK2 (from UniProt O60260 1-465) (enzyme)” as the substance, how does the binding (HA-RAP1B [1]) read?
The binding was “binds”.

What about the binding (HA-RAP1B [2]) of the same substance?
Its binding is “binds”.

Which binding [3] does the source give for “PARK2 (from UniProt O60260 1-465) (enzyme)” here?
Its binding is “binds”.
